Measured values reported in the supplement of paper PMC12823440, “Inhibitors supercharge kinase turnover through native proteolytic circuits” (Nature, 2025).
Some of the results follow. The calls rarely recur for the same compound in another form.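 Kinases, fused to nanoluciferase, were expressed in K562 cells; luminescence was measured every 4 h from 2 to 18 h as percent of control (DMSO = 100%, positive control = 0%). A time point is decreased if signal falls significantly (2 sigma). Hits were called by the authors by a rule that is not shown; the count of time points alone does not decide it.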

By UniProt entry, the sequences of proteins in these tests, tags left out. Where a name states a change or a piece, a line headed by the entry shows the natural chain unless it says otherwise.
UniProt Q9Y616: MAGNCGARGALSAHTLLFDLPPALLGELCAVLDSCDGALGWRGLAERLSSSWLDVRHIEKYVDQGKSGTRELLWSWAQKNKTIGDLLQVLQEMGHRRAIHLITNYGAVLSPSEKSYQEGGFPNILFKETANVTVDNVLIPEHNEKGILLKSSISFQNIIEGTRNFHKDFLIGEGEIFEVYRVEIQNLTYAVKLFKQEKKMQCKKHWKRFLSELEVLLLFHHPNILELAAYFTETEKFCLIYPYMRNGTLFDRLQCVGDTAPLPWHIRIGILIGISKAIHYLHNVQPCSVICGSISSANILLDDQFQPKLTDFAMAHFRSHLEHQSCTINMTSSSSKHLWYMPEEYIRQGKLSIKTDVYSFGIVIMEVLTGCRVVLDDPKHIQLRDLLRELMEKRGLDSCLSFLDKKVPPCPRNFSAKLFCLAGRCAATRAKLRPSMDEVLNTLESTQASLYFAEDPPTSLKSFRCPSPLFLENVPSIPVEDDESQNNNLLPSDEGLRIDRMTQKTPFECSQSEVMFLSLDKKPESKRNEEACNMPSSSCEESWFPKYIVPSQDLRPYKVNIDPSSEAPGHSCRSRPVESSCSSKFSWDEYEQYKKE
UniProt P23458: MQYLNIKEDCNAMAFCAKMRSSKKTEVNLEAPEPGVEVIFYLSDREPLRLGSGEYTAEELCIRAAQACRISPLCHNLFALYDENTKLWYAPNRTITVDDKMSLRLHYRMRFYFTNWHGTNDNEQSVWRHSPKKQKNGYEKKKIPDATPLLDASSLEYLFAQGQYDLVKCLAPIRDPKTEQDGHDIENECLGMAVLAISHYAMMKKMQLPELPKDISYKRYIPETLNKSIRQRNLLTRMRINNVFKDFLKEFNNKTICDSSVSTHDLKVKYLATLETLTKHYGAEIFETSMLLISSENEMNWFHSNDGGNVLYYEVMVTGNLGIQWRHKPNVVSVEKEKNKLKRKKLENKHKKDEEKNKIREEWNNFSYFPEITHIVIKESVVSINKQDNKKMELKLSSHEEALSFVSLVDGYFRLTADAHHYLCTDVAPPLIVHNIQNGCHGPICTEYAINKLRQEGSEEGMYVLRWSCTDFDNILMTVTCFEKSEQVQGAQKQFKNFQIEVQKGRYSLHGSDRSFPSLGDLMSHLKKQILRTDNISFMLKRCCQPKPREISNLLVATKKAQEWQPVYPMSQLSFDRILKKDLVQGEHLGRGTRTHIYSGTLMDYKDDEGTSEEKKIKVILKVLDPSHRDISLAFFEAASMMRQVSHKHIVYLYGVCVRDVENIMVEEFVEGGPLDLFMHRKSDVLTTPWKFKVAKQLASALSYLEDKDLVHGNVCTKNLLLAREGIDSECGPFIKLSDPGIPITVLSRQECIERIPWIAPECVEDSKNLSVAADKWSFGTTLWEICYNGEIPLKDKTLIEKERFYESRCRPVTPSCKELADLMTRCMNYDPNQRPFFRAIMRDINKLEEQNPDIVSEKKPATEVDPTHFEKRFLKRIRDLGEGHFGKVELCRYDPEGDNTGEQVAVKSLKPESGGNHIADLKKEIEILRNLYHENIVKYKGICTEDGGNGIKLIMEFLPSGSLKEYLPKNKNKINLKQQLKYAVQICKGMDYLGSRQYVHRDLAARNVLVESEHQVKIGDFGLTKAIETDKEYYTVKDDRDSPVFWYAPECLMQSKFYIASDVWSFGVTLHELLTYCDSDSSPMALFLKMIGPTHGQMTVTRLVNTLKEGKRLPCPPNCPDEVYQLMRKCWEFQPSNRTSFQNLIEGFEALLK
UniProt P07948: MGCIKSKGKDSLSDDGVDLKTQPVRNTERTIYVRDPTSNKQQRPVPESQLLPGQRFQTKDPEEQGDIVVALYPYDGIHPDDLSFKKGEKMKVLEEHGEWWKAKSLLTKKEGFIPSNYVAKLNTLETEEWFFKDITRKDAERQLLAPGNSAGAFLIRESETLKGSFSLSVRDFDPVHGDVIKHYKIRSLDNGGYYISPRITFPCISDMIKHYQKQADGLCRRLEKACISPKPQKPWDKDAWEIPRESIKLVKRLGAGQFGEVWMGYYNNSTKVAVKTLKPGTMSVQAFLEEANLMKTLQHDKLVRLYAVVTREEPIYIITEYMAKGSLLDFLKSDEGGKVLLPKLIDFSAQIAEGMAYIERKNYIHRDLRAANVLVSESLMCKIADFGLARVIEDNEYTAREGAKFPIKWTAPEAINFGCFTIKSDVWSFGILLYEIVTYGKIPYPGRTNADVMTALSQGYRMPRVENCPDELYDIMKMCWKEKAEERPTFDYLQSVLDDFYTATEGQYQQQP
UniProt Q12851: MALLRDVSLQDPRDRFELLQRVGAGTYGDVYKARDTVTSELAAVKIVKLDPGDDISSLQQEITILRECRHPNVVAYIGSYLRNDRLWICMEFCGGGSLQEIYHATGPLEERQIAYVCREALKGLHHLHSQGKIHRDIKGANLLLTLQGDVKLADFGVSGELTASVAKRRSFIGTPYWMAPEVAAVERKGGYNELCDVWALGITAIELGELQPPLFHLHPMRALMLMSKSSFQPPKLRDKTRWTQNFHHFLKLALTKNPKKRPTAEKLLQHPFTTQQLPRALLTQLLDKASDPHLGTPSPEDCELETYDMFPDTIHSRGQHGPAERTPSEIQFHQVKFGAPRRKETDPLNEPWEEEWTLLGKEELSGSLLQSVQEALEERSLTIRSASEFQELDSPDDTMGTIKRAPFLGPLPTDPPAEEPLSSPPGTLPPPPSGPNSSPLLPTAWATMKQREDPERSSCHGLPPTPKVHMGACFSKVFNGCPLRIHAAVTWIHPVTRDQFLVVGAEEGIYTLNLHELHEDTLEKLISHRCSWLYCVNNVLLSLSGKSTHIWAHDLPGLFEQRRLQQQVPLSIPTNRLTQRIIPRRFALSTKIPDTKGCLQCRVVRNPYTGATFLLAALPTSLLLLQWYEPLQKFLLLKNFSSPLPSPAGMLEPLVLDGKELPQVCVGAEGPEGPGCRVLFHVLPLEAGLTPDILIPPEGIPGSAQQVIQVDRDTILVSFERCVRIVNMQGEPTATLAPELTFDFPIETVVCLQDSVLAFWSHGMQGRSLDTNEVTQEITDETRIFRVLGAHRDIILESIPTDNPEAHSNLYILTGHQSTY
UniProt P49137, whole entry, looked up: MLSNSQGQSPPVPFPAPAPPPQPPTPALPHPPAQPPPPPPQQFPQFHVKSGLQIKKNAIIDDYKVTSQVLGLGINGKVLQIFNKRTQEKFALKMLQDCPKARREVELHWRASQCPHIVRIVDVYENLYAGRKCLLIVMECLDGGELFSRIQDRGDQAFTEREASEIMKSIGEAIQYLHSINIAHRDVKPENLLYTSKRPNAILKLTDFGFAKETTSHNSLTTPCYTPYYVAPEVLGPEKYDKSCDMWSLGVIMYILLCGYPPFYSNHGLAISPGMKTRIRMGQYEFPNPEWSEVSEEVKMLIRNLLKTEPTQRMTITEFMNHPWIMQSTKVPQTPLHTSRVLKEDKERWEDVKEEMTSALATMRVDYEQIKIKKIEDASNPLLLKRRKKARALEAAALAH
UniProt Q9BUB5: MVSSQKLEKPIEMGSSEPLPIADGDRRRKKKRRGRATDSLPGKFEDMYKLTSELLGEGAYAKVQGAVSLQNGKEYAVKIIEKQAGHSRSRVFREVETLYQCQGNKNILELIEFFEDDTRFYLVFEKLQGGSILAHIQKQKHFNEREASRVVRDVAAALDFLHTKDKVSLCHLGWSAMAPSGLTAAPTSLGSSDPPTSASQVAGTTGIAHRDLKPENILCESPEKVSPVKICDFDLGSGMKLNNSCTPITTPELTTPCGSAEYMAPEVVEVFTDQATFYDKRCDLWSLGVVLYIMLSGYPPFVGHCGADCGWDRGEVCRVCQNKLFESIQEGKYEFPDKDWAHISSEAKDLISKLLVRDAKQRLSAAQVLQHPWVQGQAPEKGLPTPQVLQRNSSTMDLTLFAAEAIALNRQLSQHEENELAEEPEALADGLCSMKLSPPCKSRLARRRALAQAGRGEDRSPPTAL
UniProt Q16620, whole entry, looked up: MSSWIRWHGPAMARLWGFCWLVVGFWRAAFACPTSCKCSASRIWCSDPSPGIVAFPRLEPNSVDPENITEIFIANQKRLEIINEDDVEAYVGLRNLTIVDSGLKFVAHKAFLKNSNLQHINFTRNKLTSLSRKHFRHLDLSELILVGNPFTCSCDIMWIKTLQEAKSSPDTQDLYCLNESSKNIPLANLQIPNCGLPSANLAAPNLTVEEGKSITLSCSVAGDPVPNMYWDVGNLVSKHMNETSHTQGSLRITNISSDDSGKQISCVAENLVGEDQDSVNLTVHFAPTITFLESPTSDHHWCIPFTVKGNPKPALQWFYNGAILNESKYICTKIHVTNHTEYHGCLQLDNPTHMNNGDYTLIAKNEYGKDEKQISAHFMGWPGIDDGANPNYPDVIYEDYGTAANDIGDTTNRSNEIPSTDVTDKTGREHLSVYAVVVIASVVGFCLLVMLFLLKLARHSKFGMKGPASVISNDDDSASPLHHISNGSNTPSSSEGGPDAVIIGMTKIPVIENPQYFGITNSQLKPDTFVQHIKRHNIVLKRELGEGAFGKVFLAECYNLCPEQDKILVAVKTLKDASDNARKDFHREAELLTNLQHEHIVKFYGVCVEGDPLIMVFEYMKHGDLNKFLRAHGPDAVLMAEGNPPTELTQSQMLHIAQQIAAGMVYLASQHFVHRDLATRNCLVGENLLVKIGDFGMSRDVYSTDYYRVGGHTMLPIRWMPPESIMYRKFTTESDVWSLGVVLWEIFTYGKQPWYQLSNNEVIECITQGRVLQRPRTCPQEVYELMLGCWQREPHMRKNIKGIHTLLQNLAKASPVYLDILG
UniProt Q16288, whole entry, looked up: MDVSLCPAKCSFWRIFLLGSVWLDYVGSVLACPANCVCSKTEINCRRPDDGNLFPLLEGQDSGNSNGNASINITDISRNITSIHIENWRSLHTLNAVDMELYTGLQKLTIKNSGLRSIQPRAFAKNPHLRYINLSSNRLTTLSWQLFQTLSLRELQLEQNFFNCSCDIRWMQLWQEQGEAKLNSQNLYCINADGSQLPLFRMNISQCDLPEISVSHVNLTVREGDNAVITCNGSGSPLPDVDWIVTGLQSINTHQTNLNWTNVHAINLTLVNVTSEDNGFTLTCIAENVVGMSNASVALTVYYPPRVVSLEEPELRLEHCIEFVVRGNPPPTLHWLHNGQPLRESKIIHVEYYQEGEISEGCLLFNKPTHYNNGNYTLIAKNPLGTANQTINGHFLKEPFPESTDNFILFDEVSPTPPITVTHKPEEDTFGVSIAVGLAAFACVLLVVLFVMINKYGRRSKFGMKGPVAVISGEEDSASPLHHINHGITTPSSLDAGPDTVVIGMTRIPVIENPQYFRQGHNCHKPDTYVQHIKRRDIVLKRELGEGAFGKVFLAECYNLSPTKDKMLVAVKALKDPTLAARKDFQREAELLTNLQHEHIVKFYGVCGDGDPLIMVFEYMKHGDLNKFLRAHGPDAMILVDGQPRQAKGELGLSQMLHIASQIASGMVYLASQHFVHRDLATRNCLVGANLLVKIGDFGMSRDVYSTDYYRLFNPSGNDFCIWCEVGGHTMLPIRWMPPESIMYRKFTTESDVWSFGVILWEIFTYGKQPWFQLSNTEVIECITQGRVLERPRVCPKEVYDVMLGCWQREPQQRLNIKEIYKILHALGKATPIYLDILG
UniProt O96013: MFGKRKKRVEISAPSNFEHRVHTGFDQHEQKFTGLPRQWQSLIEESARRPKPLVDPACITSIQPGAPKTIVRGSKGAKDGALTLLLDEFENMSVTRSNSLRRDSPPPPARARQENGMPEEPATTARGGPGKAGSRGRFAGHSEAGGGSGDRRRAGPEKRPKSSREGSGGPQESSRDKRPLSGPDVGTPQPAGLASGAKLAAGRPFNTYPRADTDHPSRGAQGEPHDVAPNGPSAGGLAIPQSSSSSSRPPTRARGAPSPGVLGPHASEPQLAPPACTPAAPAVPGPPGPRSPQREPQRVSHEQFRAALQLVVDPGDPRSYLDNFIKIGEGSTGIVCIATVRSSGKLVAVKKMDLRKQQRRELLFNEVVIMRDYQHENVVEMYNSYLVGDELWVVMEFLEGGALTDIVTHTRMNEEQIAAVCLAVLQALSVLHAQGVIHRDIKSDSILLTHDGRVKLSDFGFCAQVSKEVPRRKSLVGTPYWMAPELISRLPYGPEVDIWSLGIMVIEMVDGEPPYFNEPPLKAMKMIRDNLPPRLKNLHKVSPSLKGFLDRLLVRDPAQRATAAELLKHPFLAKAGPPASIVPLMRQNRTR
UniProt Q96KB5: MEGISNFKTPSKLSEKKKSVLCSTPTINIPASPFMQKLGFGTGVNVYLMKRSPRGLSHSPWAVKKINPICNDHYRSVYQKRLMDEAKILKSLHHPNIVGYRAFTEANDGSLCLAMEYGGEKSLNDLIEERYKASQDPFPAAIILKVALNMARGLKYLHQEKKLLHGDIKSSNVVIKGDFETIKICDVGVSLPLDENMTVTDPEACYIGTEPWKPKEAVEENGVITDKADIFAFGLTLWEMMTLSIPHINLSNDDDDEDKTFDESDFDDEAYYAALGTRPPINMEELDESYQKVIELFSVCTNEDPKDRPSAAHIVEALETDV

Legend:
Experiment in all cases: kinase-Nluc reporter destabilization hit call (1 = scored as downregulated) (binary); higher = compound decreases kinase abundance
Details in all cases: K562; 2-18 h
IRAK3 = IRAK3 (UniProt Q9Y616)
JAK1 = JAK1 (UniProt P23458)
LCK = LCK (UniProt P06239)
LIMK1 = LIMK1 (UniProt P53667)
LIMK2 = LIMK2 (UniProt P53671)
LMTK2 = LMTK2 (UniProt Q8IWU2)
LYN = LYN (UniProt P07948)
MAP2K1 = MAP2K1 (UniProt Q02750)
MAP2K2 = MAP2K2 (UniProt P36507)
MAP4K2 = MAP4K2 (UniProt Q12851)
MAPK1 = MAPK1 (UniProt P28482)
MAPK4 = MAPK4 (UniProt P31152)
MAPKAPK2 = MAPKAPK2 (UniProt P49137)
MKNK1 = MKNK1 (UniProt Q9BUB5)
NTRK2 = NTRK2 (UniProt Q16620)
NTRK3 = NTRK3 (UniProt Q16288)
PAK4 = PAK4 (UniProt O96013)
PBK = PBK (UniProt Q96KB5)
PDGFRB = PDGFRB (UniProt P09619)
PDK1 = PDK1 (UniProt Q15118)

Measured: kinase-Nluc reporter destabilization hit call

COc1ccc2c(Oc3ccc4c(C(=O)Nc5ccccc5N)cccc4c3)ccnc2c1 [Chiauranib] (10 µM)
inactive: IRAK3 = 0 | JAK1 = 0 | LCK 0 | LIMK1 = 0 | LIMK2 = 0 | LMTK2 = 0 | LYN 0 | MAP2K1 = 0 | MAP2K2 = 0 | MAP4K2 = 0 | MAPK1 = 0 | MAPK4 = 0 | MAPKAPK2 = 0 | MKNK1 = 0 | NTRK2 = 0 | NTRK3 = 0 | PAK4 = 0 | PBK 0 | PDGFRB 0 | PDK1 = 0

C=C1C(=O)[C@@]23[C@H](O)C[C@@H]4C(C)(C)C(=O)CC[C@@]4(C)[C@@H]2CC[C@@H]1[C@H]3O [Glaucocalyxin A] (2.5 µM)
inactive: IRAK3 = 0 | JAK1 = 0 | LCK 0 | LIMK1 = 0 | LIMK2 = 0 | LMTK2 = 0 | LYN 0 | MAP2K1 = 0 | MAP2K2 = 0 | MAP4K2 = 0 | MAPK1 = 0 | MAPK4 = 0 | MAPKAPK2 = 0 | MKNK1 = 0 | NTRK2 = 0 | NTRK3 = 0 | PAK4 = 0 | PBK 0 | PDGFRB 0 | PDK1 = 0

CCCn1/c(=N/C(=O)c2cccc(C(N)=O)c2)[nH]c2ccccc21 [Takinib] (10 µM)
inactive: IRAK3 = 0 | JAK1 = 0 | LCK 0 | LIMK1 = 0 | LIMK2 = 0 | LMTK2 = 0 | LYN 0 | MAP2K1 = 0 | MAP2K2 = 0 | MAP4K2 = 0 | MAPK1 = 0 | MAPK4 = 0 | MAPKAPK2 = 0 | MKNK1 = 0 | NTRK2 = 0 | NTRK3 = 0 | PAK4 = 0 | PBK 0 | PDGFRB 0 | PDK1 = 0

Cc1cccc(-c2[nH]ncc2-c2ccnc3ccccc23)n1 (10 µM)
inactive: IRAK3 = 0 | JAK1 = 0 | LCK 0 | LIMK1 = 0 | LIMK2 = 0 | LMTK2 = 0 | LYN 0 | MAP2K1 = 0 | MAP2K2 = 0 | MAP4K2 = 0 | MAPK1 = 0 | MAPK4 = 0 | MAPKAPK2 = 0 | MKNK1 = 0 | NTRK2 = 0 | NTRK3 = 0 | PAK4 = 0 | PBK 0 | PDGFRB 0 | PDK1 = 0

CNC(=O)c1cc2c(Oc3ccc(NC(=O)C4(C(=O)Nc5ccc(F)cc5)CC4)cc3)ccnc2cc1OC (2.5 µM)
inactive: IRAK3 = 0 | JAK1 = 0 | LCK 0 | LIMK1 = 0 | LIMK2 = 0 | LMTK2 = 0 | LYN 0 | MAP2K1 = 0 | MAP2K2 = 0 | MAP4K2 = 0 | MAPK1 = 0 | MAPK4 = 0 | MAPKAPK2 = 0 | MKNK1 = 0 | NTRK2 = 0 | NTRK3 = 0 | PAK4 = 0 | PBK 0 | PDK1 = 0
active: PDGFRB 1

O=C(Nc1ccc(Cl)cc1)C1CCCN(C(=O)c2cc(C(F)(F)F)cc(C(F)(F)F)c2)C1 (stereo not given) (10 µM)
inactive: IRAK3 = 0 | JAK1 = 0 | LCK 0 | LIMK1 = 0 | LIMK2 = 0 | LMTK2 = 0 | LYN 0 | MAP2K1 = 0 | MAP2K2 = 0 | MAP4K2 = 0 | MAPK1 = 0 | MAPK4 = 0 | MAPKAPK2 = 0 | MKNK1 = 0 | NTRK2 = 0 | NTRK3 = 0 | PAK4 = 0 | PBK 0 | PDGFRB 0 | PDK1 = 0

O=C(Nc1cccnc1)c1cc(-c2ccnc(F)c2)ccc1OCc1ccccc1 (10 µM)
inactive: IRAK3 = 0 | JAK1 = 0 | LCK 0 | LIMK1 = 0 | LIMK2 = 0 | LMTK2 = 0 | LYN 0 | MAP2K1 = 0 | MAP2K2 = 0 | MAP4K2 = 0 | MAPK1 = 0 | MAPK4 = 0 | MAPKAPK2 = 0 | MKNK1 = 0 | NTRK2 = 0 | NTRK3 = 0 | PAK4 = 0 | PBK 0 | PDGFRB 0 | PDK1 = 0

O=c1cc(N2CCOCC2)oc2c(-c3ccc4c(c3)OCCO4)csc12 (2.5 µM)
inactive: IRAK3 = 0 | JAK1 = 0 | LCK 0 | LIMK1 = 0 | LIMK2 = 0 | LMTK2 = 0 | LYN 0 | MAP2K1 = 0 | MAP2K2 = 0 | MAP4K2 = 0 | MAPK1 = 0 | MAPK4 = 0 | MAPKAPK2 = 0 | MKNK1 = 0 | NTRK2 = 0 | NTRK3 = 0 | PAK4 = 0 | PBK 0 | PDGFRB 0 | PDK1 = 0

CC(Sc1nc2c(cnn2-c2cccc(Cl)c2)c(=O)[nH]1)C(N)=O (stereo not given) (10 µM)
inactive: IRAK3 = 0 | JAK1 = 0 | LCK 0 | LIMK1 = 0 | LIMK2 = 0 | LMTK2 = 0 | LYN 0 | MAP2K1 = 0 | MAP2K2 = 0 | MAP4K2 = 0 | MAPK1 = 0 | MAPK4 = 0 | MAPKAPK2 = 0 | MKNK1 = 0 | NTRK2 = 0 | NTRK3 = 0 | PAK4 = 0 | PBK 0 | PDGFRB 0 | PDK1 = 0

Cc1c(C(=O)Nc2ccc(Oc3ccnc4[nH]cc(-c5ccccc5)c34)c(F)c2)c(=O)n(-c2ccc(F)cc2)n1C (10 µM)
inactive: IRAK3 = 0 | JAK1 = 0 | LCK 0 | LIMK1 = 0 | LIMK2 = 0 | LMTK2 = 0 | LYN 0 | MAP2K1 = 0 | MAP2K2 = 0 | MAP4K2 = 0 | MAPK1 = 0 | MAPK4 = 0 | MAPKAPK2 = 0 | MKNK1 = 0 | NTRK2 = 0 | NTRK3 = 0 | PAK4 = 0 | PBK 0 | PDGFRB 0 | PDK1 = 0

Cc1cc(CSc2ccccc2C(=O)NCCNc2ccc(C(F)(F)F)cc2[N+](=O)[O-])on1 (10 µM)
inactive: IRAK3 = 0 | JAK1 = 0 | LCK 0 | LIMK1 = 0 | LIMK2 = 0 | LMTK2 = 0 | LYN 0 | MAP2K1 = 0 | MAP2K2 = 0 | MAP4K2 = 0 | MAPK1 = 0 | MAPK4 = 0 | MAPKAPK2 = 0 | MKNK1 = 0 | NTRK2 = 0 | NTRK3 = 0 | PAK4 = 0 | PBK 0 | PDGFRB 0 | PDK1 = 0

Random excerpt: two records from the list, in no set order.
Cc1c(C(=O)Nc2ccc(Oc3ccnc4[nH]cc(-c5ccccc5)c34)c(F)c2)c(=O)n(-c2ccc(F)cc2)n1C (10 µM)
inactive: IRAK3 = 0 | JAK1 = 0 | LCK 0 | LIMK1 = 0 | LIMK2 = 0 | LMTK2 = 0 | LYN 0 | MAP2K1 = 0 | MAP2K2 = 0 | MAP4K2 = 0 | MAPK1 = 0 | MAPK4 = 0 | MAPKAPK2 = 0 | MKNK1 = 0 | NTRK2 = 0 | NTRK3 = 0 | PAK4 = 0 | PBK 0 | PDGFRB 0 | PDK1 = 0

Cc1cc(CSc2ccccc2C(=O)NCCNc2ccc(C(F)(F)F)cc2[N+](=O)[O-])on1 (10 µM)
inactive: IRAK3 = 0 | JAK1 = 0 | LCK 0 | LIMK1 = 0 | LIMK2 = 0 | LMTK2 = 0 | LYN 0 | MAP2K1 = 0 | MAP2K2 = 0 | MAP4K2 = 0 | MAPK1 = 0 | MAPK4 = 0 | MAPKAPK2 = 0 | MKNK1 = 0 | NTRK2 = 0 | NTRK3 = 0 | PAK4 = 0 | PBK 0 | PDGFRB 0 | PDK1 = 0

(continued)

COCCOc1ccc2c(c1)ncn2-c1ccc2cccc(N3CCC(N)CC3)c2n1 (10 µM)
inactive: IRAK3 = 0 | JAK1 = 0 | LCK 0 | LIMK1 = 0 | LIMK2 = 0 | LMTK2 = 0 | LYN 0 | MAP2K1 = 0 | MAP2K2 = 0 | MAP4K2 = 0 | MAPK1 = 0 | MAPK4 = 0 | MAPKAPK2 = 0 | MKNK1 = 0 | NTRK2 = 0 | NTRK3 = 0 | PAK4 = 0 | PBK 0 | PDGFRB 0 | PDK1 = 0

CC1=C(C(=O)Nc2cc3cn[nH]c3cc2F)C(c2ccc(C(F)(F)F)cc2)CC(=O)N1 (stereo not given) (10 µM)
inactive: IRAK3 = 0 | JAK1 = 0 | LCK 0 | LIMK1 = 0 | LIMK2 = 0 | LMTK2 = 0 | LYN 0 | MAP2K1 = 0 | MAP2K2 = 0 | MAP4K2 = 0 | MAPK1 = 0 | MAPK4 = 0 | MAPKAPK2 = 0 | MKNK1 = 0 | NTRK2 = 0 | NTRK3 = 0 | PAK4 = 0 | PBK 0 | PDGFRB 0 | PDK1 = 0

CC(C)(C)Cc1[nH]nc2c1[C@@](C)(c1ccccc1)C1=C(CC(C)(C)CC1=O)N2 (10 µM)
inactive: IRAK3 = 0 | JAK1 = 0 | LCK 0 | LIMK1 = 0 | LIMK2 = 0 | LMTK2 = 0 | LYN 0 | MAP2K1 = 0 | MAP2K2 = 0 | MAP4K2 = 0 | MAPK1 = 0 | MAPK4 = 0 | MAPKAPK2 = 0 | MKNK1 = 0 | NTRK2 = 0 | NTRK3 = 0 | PAK4 = 0 | PBK 0 | PDGFRB 0 | PDK1 = 0

COC(=O)Nc1ccc(-c2nc(N3CCOCC3)c3cnn(C4CCN(C(=O)OC)CC4)c3n2)cc1 (10 µM)
inactive: IRAK3 = 0 | JAK1 = 0 | LCK 0 | LIMK1 = 0 | LIMK2 = 0 | LMTK2 = 0 | LYN 0 | MAP2K1 = 0 | MAP2K2 = 0 | MAP4K2 = 0 | MAPK1 = 0 | MAPK4 = 0 | MAPKAPK2 = 0 | MKNK1 = 0 | NTRK2 = 0 | NTRK3 = 0 | PAK4 = 0 | PBK 0 | PDGFRB 0 | PDK1 = 0

N#Cc1ccc2ncnc(NCCc3ccccc3)c2c1 [Senexin A] (10 µM)
inactive: IRAK3 = 0 | JAK1 = 0 | LCK 0 | LIMK1 = 0 | LIMK2 = 0 | LMTK2 = 0 | LYN 0 | MAP2K1 = 0 | MAP2K2 = 0 | MAP4K2 = 0 | MAPK1 = 0 | MAPK4 = 0 | MAPKAPK2 = 0 | MKNK1 = 0 | NTRK2 = 0 | NTRK3 = 0 | PAK4 = 0 | PBK 0 | PDGFRB 0 | PDK1 = 0

O=c1c2c([nH]n1-c1nc3ccccc3s1)CCCC2 (10 µM)
inactive: IRAK3 = 0 | JAK1 = 0 | LCK 0 | LIMK1 = 0 | LIMK2 = 0 | LMTK2 = 0 | LYN 0 | MAP2K1 = 0 | MAP2K2 = 0 | MAP4K2 = 0 | MAPK1 = 0 | MAPK4 = 0 | MAPKAPK2 = 0 | MKNK1 = 0 | NTRK2 = 0 | NTRK3 = 0 | PAK4 = 0 | PBK 0 | PDGFRB 0 | PDK1 = 0

O=C(c1cccc(Cl)c1F)N1CCN(Cc2cccc(Nc3nccs3)n2)CC1 (2.5 µM)
inactive: IRAK3 = 0 | JAK1 = 0 | LCK 0 | LIMK1 = 0 | LIMK2 = 0 | LMTK2 = 0 | LYN 0 | MAP2K1 = 0 | MAP2K2 = 0 | MAP4K2 = 0 | MAPK1 = 0 | MAPK4 = 0 | MAPKAPK2 = 0 | MKNK1 = 0 | NTRK2 = 0 | NTRK3 = 0 | PAK4 = 0 | PBK 0 | PDGFRB 0 | PDK1 = 0
